This note sets out measurements from patent publication US9340600B2 (Indiana University Research and Technology Corporation, priority 2012, dated 2016).

A short description of this data set: general procedure: Boc solid-phase peptide synthesis; MBHA resin, 100-180 mesh, 1% DVB, loading 0.7-1.0 mmol/g (Midwest Biotech); DEPBT/DIEA single couplings; DIC for acylation. The settings on record: Analytical HPLC, UV 214/220 nm.

As for dPEG-gammaGlu-C16 peptide (mass 5010.6), the “final HPLC purity” value (whole synthesis, scale of the general procedure 0.2 mmole) was 90%+.

For the substance “Glucagon Aib2 E16 A18 L27 D29 Cex Cys40(S-2 palmityl)amide”, the “final HPLC purity” value (lipidation step) stood at 90%+.
